Assay results as given in publication PMC10163288.
The other results are listed elsewhere or left out.

B1: il10ra_site1_sap_15_mot_HHH_b1_00456_000000263_0001_1_17_H_._HHH_b2_03029_0001_0000100004_0000002_0_0001 (protein)
chain: DEEEEELAELLKEGDPEAERLIEELIAELMGFPPEQARKVLELQERQIGDPRQAVLAALRAARMV
B2: il10ra_site1_normal_mot_HHH_b2_03220_af2_000000223_0001_23_40_H_._HHH_b1_06979_af2_0001_0000200009_0000001_0 (protein)
chain: SSSSSERERVWRLLREILELWANGNPEEAEELLEEAQRLVEEANSELFKFAVEAVERAVRLSSSS
B3: il10ra_site1_normal_mot_8756ee2cf497b5429c717dfc0c0bcfd6_0001_000000186_0001_1_13_H_._HHH_b1_01984_af2_0001_0000400009_0000002_0_af2pred_0001 (protein)
chain: SSSSSDLEELLRLLREIAKLLHEGDEEEAEKLIERAEEIAEELNDEVARAILRFLQERLNSSSSS
B4: il10ra_site1_sap_15_mot_HHH_b1_07185_000000289_0001_1_15_H_._649a1d3161f016c9e54e9aa878614165_0001_0001_0000200009_0000001_0_0001 (protein)
chain: SSSSSEVEQEVREILEEAEELAKEGDPEKVSRVLLEALKVAWRHSDKEALQLVWEVVHRLGSSSS
B5: il10ra_site1_normal_mot_HHH_b2_06786_000000018_0001_41_57_H_._HHH_b1_06130_0001_0000700040_0000002_0 (protein)
chain: SSSSSSSEEEEEVEELVEEVKEDPRLAQRAVRRVYKLADETNDPRLLALLWRLFKELISSSSSSS
B6: il10ra_site1_normal_mot_HHH_b2_04681_000000155_0001_43_57_H_._HHH_b2_07082_0001_0000100001_0000001_0 (protein)
chain: SSSSDVTERFRELVEKLSQLVREGDDEEARELLKEIEELAEEANSHILREQAEFLRRIVEQSSSS
B7: il10ra_site1_sap_21_mot_HHH_b1_01693_000000146_0001_1_17_H_._HHH_b2_04774_0001_0000200019_0000002_0_0001_af2pred_0001 (protein)
chain: SSSSDDIERALERLLEALEHAVRLGDEEKIRLSTKDIKASAKDANDPEVEERAEELLREFGSSSS
B8: il10ra_site1_sap_22_mot_HHH_b2_03631_af2_000000003_0001_42_56_H_._HHH_b1_03142_0001_0000100002_0000002_0_0001 (protein)
chain: SLEEELEELLRELGVPPERIRLLQLAFRVQRRQGSPPEDVLRALLYLLHAAGSPAREAVEELLRR
B9: il10ra_site1_sap_17_mot_b26a303360aa2756ef5b79665ce52f45_0001_000000179_0001_1_11_H_._HHH_b1_05676_af2_0001_0000100003_0000001_0_0001_af2pred_0001 (protein)
chain: SSSSDADERAVELLIKAVKQLLEKGNEELAKLTLHIAELAAKATNNEELEKELEKLRELLSSSSS
B10: il10ra_site1_normal_mot_65b8060e20531850bca9f2e11f97d954_0001_af2_000000137_0001_17_31_H_._HHH_b1_03310_0001_0000200016_0000001_1_af2pred_0001 (protein)
chain: SSSSDEEERRVSELFVKAAQLLDEGNPEEAKKLLEEMEELAEEGNNEKLRLTVRFLKALIESSSS
B11: il10ra_site1_normal_mot_HHH_b2_00984_000000042_0001_1_20_H_._HHH_b1_00874_af2_0001_0000200003_0000001_0 (protein)
chain: SSSSSDEEEERAEELLEQAKRIPDPREAIELLAEAVQLALRLGDEELLQEIWEIIKKLESSSSSS
B12: il10ra_site1_sap_28_mot_HHH_b1_07527_000000076_0001_1_15_H_._HHH_b1_01190_0001_0000500043_0000001_0_0001_af2pred_0001 (protein)
chain: SSSSSKEDREIVELLRRIIELLAEGDEEEARELLEEAEELARENNNLLAEVIIRFLQKHVESSSS
B13: il10ra_site1_sap_22_mot_HHH_b2_00033_000000036_0001_41_54_H_._HHH_b1_03321_0001_0000100007_0000001_0_0001 (protein)
chain: SSSSSEEEEELRELLERIEEAVRRGDPELFAELVQELLHLAYQLRDEEVLQELYRLFKKAASSSS
B14: il10ra_site1_normal_mot_HHH_b1_05757_000000171_0001_42_57_H_._20bd334181f53d5e88893876e50d2750_0001_0001_0000100001_0000001_0_af2pred_0001 (protein)
chain: DPRVVEVLREVIEKFADDPEAQRLVREASRLLNNGNPEKALELLLELAEELGDPELERKVEELLK
B15: il10ra_site1_normal_mot_HHH_b2_06979_000000158_0001_42_57_H_._HHH_b2_02744_af2_0001_0000100001_0000001_0_af2pred_0001 (protein)
chain: SSSSNEVSRRLLELIRRAAELRDRGDPEEAEEVLEEAKELAEENNDELFLIVVEFALRSLSSSSS
B16: il10ra_site1_sap_20_mot_HHH_b1_02397_af2_000000085_0001_39_57_H_._HHH_b2_04674_0001_0000100007_0000001_0_0001 (protein)
chain: SSSSSSDREEEIEELIEEAKQIPDPREAAEVLARAVRLALENSNEELLQEIWELVLRLSSSSSSS
B17: il10ra_site1_normal_mot_HHH_b2_01310_000000089_0001_41_55_H_._HHH_b2_02502_af2_0002_0000400031_0000001_0 (protein)
chain: SSSSDELEKELERLIEEIEELIEEGDPERAVRLLQRLVQYAFRAGDEEALRRAIELAELLGSSSS
B18: il10ra_site1_normal_mot_HHH_b1_02062_000000185_0001_1_20_H_._HHH_b2_01039_af2_0001_0000200011_0000001_0_af2pred_dldesign_0_af2pred (protein)
chain: SSSSSSDVQRIVDLIREALELYAEGKLEEAKKVAEEALELAKKLNNPIFIETAEYVLEKISSSSS
B19: il10ra_site1_normal_mot_HHH_b2_00033_000000036_0001_41_54_H_._HHH_b2_05675_0001_0000500028_0000002_0 (protein)
chain: SSSSSEVEERVEELLEQLEEARREGDPHKFARIAKELVRLVEQNRNPELFQEVWRLYKELSSSSS
B20: il10ra_site1_normal_mot_HHH_b2_06977_000000171_0001_1_19_H_._HHH_b1_04617_0001_0000200032_0000001_0 (protein)
chain: SSSSDNQEALRLVLEAFRAALRGNPEEARELLREAEELAERAGNEQLLRVIRELLKARENGSSSS
B21: il10ra_site1_sap_23_mot_HHH_b2_04001_000000102_0001_19_36_H_._HHH_b1_08465_af2_0001_0000500036_0000001_0_0001 (protein)
chain: SSSSSEYVEIAERFARSAHENGDRLILEHMLEMARMLAERLNDPELEELVEEIEELLERLRSSSS
B22: il10ra_site1_normal_mot_8756ee2cf497b5429c717dfc0c0bcfd6_0001_000000186_0001_1_13_H_._HHH_b1_02143_af2_0001_0000200006_0000001_0_af2pred_dldesign_0_af2pred (protein)
chain: SSSSSDKISRLVELIRKLAELVSNKDKENFKKLYKEALKLAKELKSPTFLHTLDYLKSKIESSSS
B23: il10ra_site1_normal_mot_HHH_b2_08186_000000021_0001_43_56_H_._HHH_b1_08707_0001_0000300027_0000001_0 (protein)
chain: SSSSSDIEELLREAEELAEEGNPEEALRLLQEALRLIYENNDEELLRELWEVLRKVAELSSSSSS
B24: il10ra_site1_sap_21_mot_HHH_b2_03262_000000140_0001_43_57_H_._HHH_b2_04959_af2_0001_0000600026_0000001_1_0001 (protein)
chain: SSSSDDYEEVKRLLEEAAKLLRNGDPEEAERLLEELEEELREKGNFAALFSVRHLLEVVRNSSSS
B25: il10ra_site1_normal_mot_5aed09890fd46f02a60ca541bcb2e05a_0001_1_000000092_0001_15_31_H_._01923d483164837742cf829bee572cc5_0001_0001_0000400017_0000001_0 (protein)
chain: DEEEVKRLIEEALGVPPEVVELAVRQLAEQARIPPEEALELLIRAFLLANPHNELLREALELLRK
B26: il10ra_site1_sap_21_mot_HHH_b1_05126_000000010_0001_38_52_H_._HHH_b2_05985_af2_0001_0000600013_0000001_1_0001 (protein)
chain: SSSSDLEEEIEKLLEELEELIKEGDRERITELALKIVKLIYEAKNAELLRRLWELVKAFYSSSSS
B27: il10ra_site1_sap_25_mot_HHH_b2_00894_000000003_0001_1_20_H_._HHH_b2_00894_0001_0000300026_0000002_0_0001 (protein)
chain: SSSSSDEAEEEVRELLEEAEKIPDAEEAYKLLKEAIEIAIENNDPEAERLVHEAIRKWLHSSSSS
B28: il10ra_site1_sap_28_mot_HHH_b1_01011_000000096_0001_1_19_H_._HHH_b1_05983_0001_0000100002_0000003_0_0001_af2pred_0001 (protein)
chain: SSSSSDEEVEERVEELLERAKKIDDPNRRAYLLIEAFALANKLNDEELKRKVEEVAKKLSSSSSS
B29: il10ra_site1_sap_22_mot_HHH_b1_01011_000000096_0001_1_19_H_._HHH_b1_01309_0001_0000200002_0000002_0_0001 (protein)
chain: SSSSSSTDLAHLLLRLVEAVYNKDEELIRELLEELRELLEEEGDPYIRIALHFAEAALSSSSSSS
B30: il10ra_site1_sap_11_mot_HHH_b2_02315_000000136_0001_19_35_H_._HHH_b2_01011_0001_0000100008_0000001_0_0001 (protein)
chain: SSSSDEATREIYELLREAVELDNDGNPEEAEKVLEEARKIAEEGNDRVLAHTIRRMEELIGSSSS
B31: il10ra_site1_normal_mot_HHH_b1_05357_000000034_0001_23_39_H_._ems_3hC_618_0001_0001_0000600039_0000001_0 (protein)
chain: KEEARDRASHLIIQAYALAHQSDPEAREEAEELIKEAEELAKEANDPAVEQAVRIAKEEIEEACS
B32: il10ra_site1_sap_15_mot_HHH_b2_03745_000000022_0001_1_20_H_._HHH_b2_06044_0001_0000100003_0000001_0_0001 (protein)
chain: SSSDREIALRAAELSIEAIQLQHRGDEEALEEIVEEVRELVEELGDPYVRIVLRFVESLLRNSSS
B33: il10ra_site1_sap_22_mot_HHH_b1_06804_000000054_0001_40_54_H_._HHH_b1_06242_af2_0002_0000600032_0000001_0_0001 (protein)
chain: SSSSDEEERHYVEAARRFAELAAEAGNPEMVESILELLREILERLNDEELLEQVEELLEELSSSS
B34: il10ra_site1_sap_24_mot_HHH_b2_06480_af2_000000075_0001_1_18_H_._HHH_b1_07760_af2_0001_0000600037_0000002_0_0001 (protein)
chain: SSSSDEATREVYELSRRAMEALAEGDPEEAREILEEALEIARENNDRIMAVVLEYILRLLNSSSS
B35: il10ra_site1_normal_mot_HHH_b1_07878_000000292_0001_1_19_H_._HHH_b2_06173_0001_0000700028_0000002_0_af2pred_0001 (protein)
chain: SSSSDEAFEITRRAIEEAVKLLEEGDPEKAEQVVEEALRLVEELNNFAAFASLKHLLEIIRSSSS
B36: il10ra_site1_normal_mot_HHH_b1_00814_af2_000000078_0001_43_57_H_._HHH_b2_00423_af2_0003_0000500024_0000003_0_af2pred_0001 (protein)
chain: SSSSSSEEEVRELLKEAEEALERGNPQEAIELLRRALRLAAELNNPELLKLVLEVARHVISSSSS
B37: il10ra_site1_normal_mot_HHH_b2_02354_af2_000000157_0001_40_56_H_._HHH_b1_04654_af2_0001_0000100004_0000002_0 (protein)
chain: SSSSDEERRIAQLIEEVMRLIKEGDDEEAKKLLEELKELAEELNDPNLKFIIRSLELAVRQSSSS

biological target: il10ra, Q13651; assay: yeast display titration

Apparent Kd, inactive:
B1 no binding seen
B2 no binding seen
B3 no binding seen
B4 no binding seen
B5 no binding seen
B6 no binding seen
B7 no binding seen
B8 no binding seen
B9 no binding seen
B10 no binding seen
B11 no binding seen
B12 no binding seen
B13 no binding seen
B14 no binding seen
B15 no binding seen
B16 no binding seen
B17 no binding seen
B18 no binding seen
B19 no binding seen
B20 no binding seen
B21 no binding seen
B22 no binding seen
B23 no binding seen
B24 no binding seen
B25 no binding seen
B26 no binding seen
B27 no binding seen
B28 no binding seen
B29 no binding seen
B30 no binding seen
B31 no binding seen
B32 no binding seen
B33 no binding seen
B34 no binding seen
B35 no binding seen
B36 no binding seen
B37 no binding seen

A stretch of the results above, for reference:
Apparent Kd, inactive:
B3 no binding seen
B4 no binding seen
